# From PubChem BioAssay AID1469 (National Center for Advancing Translational Sciences (NCATS), 2008)
# Chains of the proteins cited; added tags and fusions are not shown. Lines headed by an entry give the natural chain unless they say otherwise; changes in a name come on top.
# UniProt P10828: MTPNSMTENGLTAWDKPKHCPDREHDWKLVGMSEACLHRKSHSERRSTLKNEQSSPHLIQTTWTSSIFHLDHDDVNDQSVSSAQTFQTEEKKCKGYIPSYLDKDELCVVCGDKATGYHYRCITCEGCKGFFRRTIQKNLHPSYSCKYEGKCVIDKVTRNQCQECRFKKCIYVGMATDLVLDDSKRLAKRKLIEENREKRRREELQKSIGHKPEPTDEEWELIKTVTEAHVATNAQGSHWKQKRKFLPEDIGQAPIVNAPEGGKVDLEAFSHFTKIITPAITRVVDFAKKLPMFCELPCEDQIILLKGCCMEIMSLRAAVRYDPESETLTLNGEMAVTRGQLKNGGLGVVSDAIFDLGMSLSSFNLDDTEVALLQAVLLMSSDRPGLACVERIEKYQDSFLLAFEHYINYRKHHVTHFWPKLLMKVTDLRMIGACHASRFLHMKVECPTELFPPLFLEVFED
# Among all 280,000 compounds or so, about 180 (0.064%) were called active. This list was built around the results that the source calls inconclusive (neither active nor inactive); the mix of calls is not that of the screen. The call rests on the fitted dose curve; in most records, active means well fitted inhibition curve with a large enough effect; inconclusive means small, poorly fitted or top-dose-only effect, or effect the other way; inactive means flat fitted curve, though single readings scatter. A potency beside an inconclusive call is a rough fit, not a confirmed value.
# Target: Thyroid hormone receptor beta (Homo sapiens) (UniProt P10828)
# Assay: qHTS for Inhibitors of the Interaction of Thyroid Hormone Receptor and Steroid Receptor Coregulator 2; further: nearly all actives have a fitted effect of over 50% in size
# Details: TRbeta-SRC2 peptide binding, fluorescence polarization, receptor liganded with 1 µM T3; series mostly up to 106 µM
# From the text: NIH Molecular Libraries Probe Production Network [MLPCN]
# NIH Chemical Genomics Center [NCGC]
# Assay Provider: R. Kip Guy, St. Jude Children's Research Hospital
# Thyroid receptor (TR) regulates many homeostatic processes including basal metabolism, cardiovascular function, body weight, and lipid trafficking. TR modulators are potential therapeutics for obesity and hyperlipidemias but current thyroid analogs have undesirable side effects, particularly cardiac stimulation. To identify inhibitors that specifically prevent the interaction of TR with the steroid receptor coregulator 2 (SRC2), a fluorescence polarization assay was screened. […] Small molecule inhibitors that block the interaction of TR and SRC2 are detected by a decrease in fluorescence polarization. […]
# For screening, 5 uL/well 0.6 uM TRb and 20 nM SRC2 Texas Red in protein buffer (20mM Tris hydrochloride, 100mM NaCl, 10% glycerol, 1mM EDTA, 0.01% NP-40, 1mM DTT, 1uM T3 and 5% DMSO) was dispensed into black solid 1536-well plates (Grenier) using a solenoid-based dispenser. […] The plates were read by an Envision (Perkin Elmer) to detect fluorescence polarization of SRC2 Texas Red (555 nm excitation and 632 nm emission). […]
# Keywords: NIH Roadmap, MLPCN, MLI, MLSMR, qHTS, NCGC, qHTS, thyroid hormone receptor, steroid receptor coactivator, fluorescence polarization
# Potency means the concentration at half of the fitted maximal effect.
row,SMILES,Potency
1,CC(C)(C)CC(C)(C)c1ccc(OCC(=O)N/N=C/c2ccc(S(=O)(=O)O)o2)cc1,"inconclusive: 44.7 µM [activator, partial curve]"
